# Test results published in US7846941B2, “Compounds modulating c-kit and c-fms activity and uses therefor” (Plexxikon, Inc., priority 2005, dated 2010).
# Some of these results come from one statement about several compounds together.
# Biological target: Fms (UniProt P07333)
# Experiment: Fms assays of Examples 40 or 41 (AlphaScreen and 33P kinase assays, RAW264.7 pFMS, M-NFS-60 proliferation)
# Conditions: read-out: IC50 in at least one of the Fms assays; at least one of the Fms assays described in Examples 40 or 41 (biochemical or cell-based)
structure (smiles),measurement,value
"FC(F)(F)c1ccc(CNc2ccc(Cc3c[nH]c4ncccc34)cn2)cc1 [Compound P-0003, [5-(1H-Pyrrolo[2,3-b]pyridin-3-ylmethyl)-pyridin-2-yl]-(4-trifluoromethyl-benzyl)-amine]",IC50,< 1000 nM
